In PubChem BioAssay AID504834 (National Center for Advancing Translational Sciences (NCATS), 2011):
About 22,000 (6.9%) of roughly 320,000 compounds were called active. Inconclusive results, whose numbers are uncertain, are shown with a selection of clear calls. Calls follow the shape of the dose curve; as a rule, active = well fitted inhibition curve with a large enough effect; inconclusive = small, poorly fitted or top-dose-only effect, or another doubt; inactive = no such curve, though single readings can be large or run the other way. Where the call is inconclusive, the potency comes from a doubtful curve fit.

Assay: Primary qHTS for delayed death inhibitors of the malarial parasite plastid, 96 hour incubation
Details: P. falciparum luciferase reporter growth; series mostly up to 28.7 µM
Procedure, shortened: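 Two-generation exposure (96 h) targets delayed-death phenotype. Reporter parasites carrying integrated firefly luciferase, in red cells at 2% hematocrit and 0.05% parasitemia final, kept at 37 C, 5% CO2; luminescence loss indicates inhibition.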
Potency is read from the fitted curve at half-maximal effect.

Row | SMILES | Potency
1 | COc1cc(OC)cc(-c2c(C#Cc3ccsc3)c3cc(-c4cnc(OC)nc4)ccc3n2C)c1 | inconclusive: 3.7 µM [inhibitor, partial curve]
2 | C=CCc1c(C)nc(SC)nc1Nc1ccc(C(C)=O)cc1 | inconclusive: 18.5 µM [inhibitor, single point]
3 | CC(C)C(NC(=O)CSc1ccc(Cl)cc1)C(C)C | inconclusive: 13.1 µM [inhibitor, single point]
4 | Cc1cccc(Nc2c([N+](=O)[O-])c(=O)n(C)c3ccccc23)c1 | active: 10.4 µM
5 | Cc1cc(OCC(=O)N2CCC(C(N)=O)CC2)c2c(C)cc(=O)oc2c1 | inactive
6 | COc1cc2nc(N(CCN(C)C)C(=O)c3ccc(S(=O)(=O)N(C)CC4CCCO4)cc3)sc2cc1OC (centres undefined) | inconclusive: 0.0657 µM [inhibitor, full curve, poor fit]
7 | CCOC(=O)c1ccccc1NC(=O)C1CC(=O)N(c2ccccc2)C1 (centres undefined) | inconclusive: 11.7 µM [inhibitor, single point]
8 | CCC(Oc1cccc(C)c1)C(=O)Nc1ccccc1C(=O)N1CCOCC1 (centres undefined) | inactive
9 | COc1ccc2nc(-c3ccccc3)cc(OC)c2c1 | inactive
10 | Oc1c(C(c2ccccc2)N2CCc3ccccc3C2)sc2ncnn12 (centres undefined) | inconclusive: 13.1 µM [inhibitor, single point]
11 | NS(=O)(=O)c1cccc(NC(=O)CSc2ncc(C(F)(F)F)cc2Cl)c1 | inconclusive: 18.5 µM [inhibitor, single point]
12 | Cc1ccc(C)c(Cn2nnc3c(=O)[nH]c(C4CCN(C(=O)c5cccs5)CC4)nc32)c1 | inactive
13 | C[n+]1ccccc1C1CCCC/C1=N\Nc1ccc([N+](=O)[O-])cc1[N+](=O)[O-] (centres undefined) | inconclusive: 1.65 µM [inhibitor, full curve, poor fit]
14 | O=c1c2cc(N3CCOCC3)ccc2[nH]c(=S)n1CCc1ccccc1 | inconclusive: 16.5 µM [inhibitor, single point]
15 | N#Cc1ccc(N/N=C/c2cn(-c3ccccc3)nc2-c2ccccc2)c([N+](=O)[O-])c1 | active: 0.522 µM
16 | Cc1ccc(F)cc1NC(=O)Nc1cc(C(C)(C)C)nn1C | inconclusive: 11.7 µM [inhibitor, single point]
17 | CCOC(=O)Cn1c(=O)oc2cc(S(=O)(=O)N3CCc4ccccc43)ccc21 | active: 13.1 µM
18 | COC(=O)c1ccc(-n2cncn2)c(F)c1 | inconclusive: 0.0059 µM [inhibitor, full curve, poor fit]
19 | O=C(NCc1nc2ccccc2[nH]1)C1=C[C@H](c2ccc(Br)cc2)C[C@H](OCc2ccc(CO)cc2)O1 | inconclusive: 13.1 µM [inhibitor, single point]
20 | Cc1nc([N+](=O)[O-])c(Br)n1CC(=O)c1ccc(Br)cc1 | inconclusive: 18.5 µM [inhibitor, single point]
21 | O=C(NC(O)C(=O)c1ccccc1)c1ccc(F)cc1 (centres undefined) | inactive
22 | CCOc1cc(N2CCOCC2)c(OCC)cc1NC(=O)c1ccc(S(C)(=O)=O)cc1 | inconclusive: 13.1 µM [inhibitor, partial curve, poor fit]

Row | SMILES | Potency
23 | C=CCN1C=C2C(=O)C(C)(OC(=O)CCC(=O)OC)C(=O)C(Br)=C2C=C1c1ccc(OC)cc1 (centres undefined) | inconclusive: 18.5 µM [inhibitor, single point]
24 | COc1cccc(NC(=O)CN(C)C(=O)Cc2c(C)nc3ccccc3c2C)c1 | inconclusive: 1.65 µM [inhibitor, partial curve, poor fit]
25 | Cc1ccc(OCCCN(C)C)c(Br)c1 | inactive
26 | O=C(Nc1cccc(Cl)c1)OCc1cn(-c2ccccc2)nn1 | inactive
27 | CCCCN1C(=O)C(=O)N(c2ccccc2)C1=S | inactive
28 | COc1ccc(-c2nc(CN3CCCC(C(=O)NC4CCCC4)C3)c(C)o2)cc1 (centres undefined) | inconclusive: 13.1 µM [inhibitor, partial curve, poor fit]
29 | CCOC(=O)C1=C(CSc2nc(CC)c(C)cc2C#N)OC(N)=C(C#N)C1c1ccccc1 (centres undefined) | inactive
30 | CC(=O)c1c(-c2ccc(Cl)cc2)c2ccccc2[nH]c1=O | inactive
31 | Cc1cc(NC(=O)c2ccccc2)ccc1NC(=O)Cc1ccccc1 | active: 4.15 µM
32 | O=S(=O)(Nc1cc(Sc2cccc3cccnc23)c(O)c2ccccc12)c1ccc(F)cc1 | inactive
33 | CN(CCc1cnn(C)c1)Cc1cn(C)nc1-c1ccccc1F | inconclusive: 18.5 µM [inhibitor, single point]
34 | NS(=O)(=O)c1ccc(CCNC(=O)Cc2ccc(Cl)cc2)cc1 | inactive
35 | COc1ccccc1CNCc1cccc(Oc2ccccc2)c1 | inconclusive: 0.0059 µM [inhibitor, full curve, poor fit]
36 | O=C1C(Cl)=C(N2CCOCC2)C(=O)N1CCc1ccccc1 | inconclusive: 10.4 µM [inhibitor, single point]
37 | CC1CCCN(C(=O)CCc2nnc(-c3ccc4c(c3)OCO4)o2)C1 (centres undefined) | inconclusive: 11.7 µM [inhibitor, partial curve, poor fit]
38 | O=[N+]([O-])c1ccccc1CN1CCN(Cc2ccccn2)CC1 | inconclusive: 18.5 µM [inhibitor, single point]
39 | CCCNC(=O)C1CCN(S(=O)(=O)c2c(C)noc2/C=C\c2ccc(OC)cc2)CC1 | inconclusive: 8.28 µM [inhibitor, partial curve]
40 | Cc1onc(-c2ccccc2)c1C(=O)N(Cc1ccccn1)Cc1ccccn1 | inconclusive: 18.5 µM [inhibitor, single point]
41 | O=C(c1ccco1)N1CCN(Cc2cc(=O)c(OCc3ccccc3)co2)CC1 | inconclusive: 5.22 µM [inhibitor, partial curve, poor fit]
42 | CCOC(=O)C1=C(C)N=C(SC)N(C)C1c1ccccc1 (centres undefined) | inconclusive: 7.38 µM [inhibitor, partial curve, poor fit]
43 | COc1ccc(OC)c(S(=O)(=O)Nc2c(C)cccc2C)c1 | inactive
44 | COc1ccc(C2/C=C\CN(Cc3ccc(N(C)C)cc3)CC(=O)N2Cc2ccc(F)cc2)cc1 (centres undefined) | inconclusive: 18.5 µM [inhibitor, single point]

As entered above.
In Potency, N#Cc1ccc(N/N=C/c2cn(-c3ccccc3)nc2-c2ccccc2)c([N+](=O)[O-])c1 has active: 0.522 µM
In Potency, CC1CCCN(C(=O)CCc2nnc(-c3ccc4c(c3)OCO4)o2)C1 (centres undefined) has inconclusive: 11.7 µM [inhibitor, partial curve, poor fit]
